# The list shows a part of the results.
# Chains of the proteins cited; added tags and fusions are not shown. Lines headed by an entry give the natural chain unless they say otherwise; changes in a name come on top.
# UniProt O15270: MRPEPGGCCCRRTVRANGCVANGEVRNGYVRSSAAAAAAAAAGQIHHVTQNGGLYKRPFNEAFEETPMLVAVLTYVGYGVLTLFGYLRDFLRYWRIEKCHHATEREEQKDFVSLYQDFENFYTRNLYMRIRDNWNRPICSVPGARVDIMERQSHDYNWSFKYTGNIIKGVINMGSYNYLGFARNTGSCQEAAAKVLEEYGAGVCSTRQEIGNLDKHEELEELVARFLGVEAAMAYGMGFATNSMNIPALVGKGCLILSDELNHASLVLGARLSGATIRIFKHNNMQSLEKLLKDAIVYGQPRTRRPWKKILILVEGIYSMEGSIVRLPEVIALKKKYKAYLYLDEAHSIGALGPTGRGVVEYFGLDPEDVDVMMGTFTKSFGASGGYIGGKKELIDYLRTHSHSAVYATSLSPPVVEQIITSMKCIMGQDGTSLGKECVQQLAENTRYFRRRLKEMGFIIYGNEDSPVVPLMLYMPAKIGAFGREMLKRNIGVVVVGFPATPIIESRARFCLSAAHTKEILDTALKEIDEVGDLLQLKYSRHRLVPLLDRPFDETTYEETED
# UniProt Q8WW59: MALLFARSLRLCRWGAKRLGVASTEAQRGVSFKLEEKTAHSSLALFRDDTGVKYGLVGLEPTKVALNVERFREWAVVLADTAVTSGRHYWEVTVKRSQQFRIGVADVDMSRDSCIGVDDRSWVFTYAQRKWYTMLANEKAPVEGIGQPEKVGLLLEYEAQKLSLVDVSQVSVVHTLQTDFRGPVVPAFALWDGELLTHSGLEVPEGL
# UniProt Q9NZD8: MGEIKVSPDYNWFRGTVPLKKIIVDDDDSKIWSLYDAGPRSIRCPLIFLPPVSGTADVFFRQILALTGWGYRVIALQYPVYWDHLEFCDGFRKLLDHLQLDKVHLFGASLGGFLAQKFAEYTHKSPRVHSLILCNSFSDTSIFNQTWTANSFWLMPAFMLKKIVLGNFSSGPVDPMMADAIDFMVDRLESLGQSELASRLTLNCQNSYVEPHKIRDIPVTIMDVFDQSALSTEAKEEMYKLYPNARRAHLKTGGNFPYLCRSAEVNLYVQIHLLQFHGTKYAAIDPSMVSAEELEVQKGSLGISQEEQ
# UniProt Q68D10: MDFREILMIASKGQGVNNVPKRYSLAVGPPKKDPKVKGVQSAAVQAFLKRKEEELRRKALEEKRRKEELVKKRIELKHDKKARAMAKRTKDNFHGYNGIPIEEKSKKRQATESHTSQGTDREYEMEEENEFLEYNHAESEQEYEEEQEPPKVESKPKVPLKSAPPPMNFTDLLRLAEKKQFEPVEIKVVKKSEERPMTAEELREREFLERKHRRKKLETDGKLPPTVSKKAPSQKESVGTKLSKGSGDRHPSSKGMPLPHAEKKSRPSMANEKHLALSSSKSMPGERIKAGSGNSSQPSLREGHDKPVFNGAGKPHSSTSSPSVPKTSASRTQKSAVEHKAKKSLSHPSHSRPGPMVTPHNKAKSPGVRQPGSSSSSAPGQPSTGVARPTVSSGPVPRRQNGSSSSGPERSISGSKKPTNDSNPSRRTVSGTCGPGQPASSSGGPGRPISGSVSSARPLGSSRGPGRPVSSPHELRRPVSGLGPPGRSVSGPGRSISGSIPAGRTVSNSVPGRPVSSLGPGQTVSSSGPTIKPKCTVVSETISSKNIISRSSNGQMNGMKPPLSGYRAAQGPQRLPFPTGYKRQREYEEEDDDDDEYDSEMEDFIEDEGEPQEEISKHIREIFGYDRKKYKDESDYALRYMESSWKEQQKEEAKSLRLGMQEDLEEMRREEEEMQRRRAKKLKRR
# UniProt Q11206: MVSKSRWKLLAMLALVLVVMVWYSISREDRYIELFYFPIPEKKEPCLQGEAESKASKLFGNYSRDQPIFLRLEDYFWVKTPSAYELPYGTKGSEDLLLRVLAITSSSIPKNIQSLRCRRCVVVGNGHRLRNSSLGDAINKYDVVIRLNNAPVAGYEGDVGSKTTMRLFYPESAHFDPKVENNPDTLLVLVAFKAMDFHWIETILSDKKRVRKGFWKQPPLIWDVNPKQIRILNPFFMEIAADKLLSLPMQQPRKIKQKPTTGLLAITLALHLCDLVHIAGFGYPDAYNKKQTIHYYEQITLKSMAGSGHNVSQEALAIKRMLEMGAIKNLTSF
# UniProt Q13277: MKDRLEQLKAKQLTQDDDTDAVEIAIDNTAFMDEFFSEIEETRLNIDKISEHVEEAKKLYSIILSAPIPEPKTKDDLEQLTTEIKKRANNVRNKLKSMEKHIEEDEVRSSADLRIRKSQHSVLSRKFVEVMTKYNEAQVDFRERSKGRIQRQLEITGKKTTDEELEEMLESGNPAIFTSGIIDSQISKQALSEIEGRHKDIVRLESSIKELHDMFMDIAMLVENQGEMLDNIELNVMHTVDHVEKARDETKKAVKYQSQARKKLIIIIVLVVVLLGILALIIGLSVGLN
# UniProt O76094: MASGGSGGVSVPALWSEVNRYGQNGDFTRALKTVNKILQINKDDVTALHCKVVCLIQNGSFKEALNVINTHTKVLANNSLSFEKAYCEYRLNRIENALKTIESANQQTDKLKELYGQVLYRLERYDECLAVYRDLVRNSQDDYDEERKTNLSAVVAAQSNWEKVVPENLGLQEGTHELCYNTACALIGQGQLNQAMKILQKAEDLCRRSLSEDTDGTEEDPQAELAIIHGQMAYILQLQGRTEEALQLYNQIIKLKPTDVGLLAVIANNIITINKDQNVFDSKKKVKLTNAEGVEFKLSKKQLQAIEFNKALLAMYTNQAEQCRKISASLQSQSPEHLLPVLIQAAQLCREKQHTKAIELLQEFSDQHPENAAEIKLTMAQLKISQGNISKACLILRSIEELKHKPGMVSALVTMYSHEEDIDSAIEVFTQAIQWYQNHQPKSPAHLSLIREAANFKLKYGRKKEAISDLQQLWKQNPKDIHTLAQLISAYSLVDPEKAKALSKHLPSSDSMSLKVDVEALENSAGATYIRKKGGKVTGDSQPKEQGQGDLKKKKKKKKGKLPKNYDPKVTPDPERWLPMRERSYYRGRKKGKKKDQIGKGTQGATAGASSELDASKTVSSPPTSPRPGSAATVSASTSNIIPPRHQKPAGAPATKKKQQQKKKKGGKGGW
# UniProt O00268, whole entry: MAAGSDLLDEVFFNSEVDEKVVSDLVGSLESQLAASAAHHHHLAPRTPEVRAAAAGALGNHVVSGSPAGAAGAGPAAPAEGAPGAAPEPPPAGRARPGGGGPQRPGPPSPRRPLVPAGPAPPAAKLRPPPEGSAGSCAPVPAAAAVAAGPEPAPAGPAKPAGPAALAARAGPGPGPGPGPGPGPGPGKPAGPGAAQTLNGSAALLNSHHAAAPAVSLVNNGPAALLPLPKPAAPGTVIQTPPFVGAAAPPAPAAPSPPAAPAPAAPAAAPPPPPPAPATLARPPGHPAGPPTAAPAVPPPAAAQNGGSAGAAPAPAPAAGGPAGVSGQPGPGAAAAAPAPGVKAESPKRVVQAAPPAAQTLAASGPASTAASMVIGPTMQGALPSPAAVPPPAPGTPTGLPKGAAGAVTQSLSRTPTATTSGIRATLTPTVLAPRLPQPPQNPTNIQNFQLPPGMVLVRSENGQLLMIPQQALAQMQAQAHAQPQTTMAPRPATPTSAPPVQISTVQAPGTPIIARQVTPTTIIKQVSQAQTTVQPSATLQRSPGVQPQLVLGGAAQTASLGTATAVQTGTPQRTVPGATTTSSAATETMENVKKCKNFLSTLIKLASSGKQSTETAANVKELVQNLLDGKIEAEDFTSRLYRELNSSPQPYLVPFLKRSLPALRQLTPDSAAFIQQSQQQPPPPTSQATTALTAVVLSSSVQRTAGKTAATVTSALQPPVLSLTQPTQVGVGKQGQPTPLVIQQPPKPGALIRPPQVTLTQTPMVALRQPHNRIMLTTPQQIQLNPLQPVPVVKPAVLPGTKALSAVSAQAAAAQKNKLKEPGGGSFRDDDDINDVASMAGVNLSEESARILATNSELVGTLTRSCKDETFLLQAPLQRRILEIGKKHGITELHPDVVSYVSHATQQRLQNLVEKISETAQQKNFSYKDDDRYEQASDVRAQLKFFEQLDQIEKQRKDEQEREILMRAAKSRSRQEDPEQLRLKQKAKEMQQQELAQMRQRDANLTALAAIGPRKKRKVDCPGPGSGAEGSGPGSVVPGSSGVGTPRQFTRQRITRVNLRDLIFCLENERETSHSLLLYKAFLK
# UniProt Q9UQ90: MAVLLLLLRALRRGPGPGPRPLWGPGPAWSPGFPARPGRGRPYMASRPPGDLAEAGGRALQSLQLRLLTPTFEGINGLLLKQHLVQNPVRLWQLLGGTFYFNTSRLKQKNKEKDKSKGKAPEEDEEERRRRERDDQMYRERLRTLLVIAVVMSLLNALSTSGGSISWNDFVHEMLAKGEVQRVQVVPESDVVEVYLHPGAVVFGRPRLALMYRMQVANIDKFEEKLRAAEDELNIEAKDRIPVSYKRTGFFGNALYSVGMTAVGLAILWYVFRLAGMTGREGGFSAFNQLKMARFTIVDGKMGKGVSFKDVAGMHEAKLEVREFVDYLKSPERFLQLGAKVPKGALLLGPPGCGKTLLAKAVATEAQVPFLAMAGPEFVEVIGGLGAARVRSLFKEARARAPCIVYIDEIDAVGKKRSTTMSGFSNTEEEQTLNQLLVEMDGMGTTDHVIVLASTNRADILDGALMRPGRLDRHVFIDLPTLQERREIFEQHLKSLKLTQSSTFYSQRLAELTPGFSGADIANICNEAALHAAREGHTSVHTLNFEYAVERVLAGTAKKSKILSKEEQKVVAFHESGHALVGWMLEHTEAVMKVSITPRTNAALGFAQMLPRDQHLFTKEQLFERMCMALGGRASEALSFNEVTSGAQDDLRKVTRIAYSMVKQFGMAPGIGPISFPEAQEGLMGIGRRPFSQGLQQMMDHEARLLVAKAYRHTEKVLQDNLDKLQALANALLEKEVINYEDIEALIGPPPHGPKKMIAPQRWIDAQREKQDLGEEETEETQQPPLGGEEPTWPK
# UniProt Q96BZ9: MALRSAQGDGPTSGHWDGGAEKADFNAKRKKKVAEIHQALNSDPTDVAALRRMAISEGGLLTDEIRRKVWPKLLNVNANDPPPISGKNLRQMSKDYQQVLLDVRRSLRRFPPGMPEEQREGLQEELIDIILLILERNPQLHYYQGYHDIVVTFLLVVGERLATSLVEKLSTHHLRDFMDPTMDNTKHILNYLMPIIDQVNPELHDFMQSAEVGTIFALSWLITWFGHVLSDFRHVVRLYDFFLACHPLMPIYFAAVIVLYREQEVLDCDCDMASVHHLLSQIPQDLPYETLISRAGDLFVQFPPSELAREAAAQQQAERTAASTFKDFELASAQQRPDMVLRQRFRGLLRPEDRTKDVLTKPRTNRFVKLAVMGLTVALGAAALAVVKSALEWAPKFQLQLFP
# UniProt Q9NPJ3: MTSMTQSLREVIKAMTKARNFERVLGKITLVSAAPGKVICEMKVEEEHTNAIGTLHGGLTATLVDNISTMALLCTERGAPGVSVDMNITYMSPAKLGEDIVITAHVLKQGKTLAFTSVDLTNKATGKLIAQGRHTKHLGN
# UniProt P24557: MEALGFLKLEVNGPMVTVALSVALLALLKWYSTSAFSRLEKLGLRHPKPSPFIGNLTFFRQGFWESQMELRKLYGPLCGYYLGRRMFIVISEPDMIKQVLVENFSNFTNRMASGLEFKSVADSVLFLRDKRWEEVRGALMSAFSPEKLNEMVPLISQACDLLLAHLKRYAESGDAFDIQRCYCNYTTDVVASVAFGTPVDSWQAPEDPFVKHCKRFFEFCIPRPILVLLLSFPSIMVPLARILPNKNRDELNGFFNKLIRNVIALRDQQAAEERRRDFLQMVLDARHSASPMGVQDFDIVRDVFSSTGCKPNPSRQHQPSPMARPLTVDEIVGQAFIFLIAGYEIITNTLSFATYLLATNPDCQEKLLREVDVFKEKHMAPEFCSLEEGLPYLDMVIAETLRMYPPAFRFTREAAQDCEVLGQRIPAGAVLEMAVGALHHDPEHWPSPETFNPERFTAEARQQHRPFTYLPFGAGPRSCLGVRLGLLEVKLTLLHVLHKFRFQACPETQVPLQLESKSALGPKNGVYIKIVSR
# UniProt P15907: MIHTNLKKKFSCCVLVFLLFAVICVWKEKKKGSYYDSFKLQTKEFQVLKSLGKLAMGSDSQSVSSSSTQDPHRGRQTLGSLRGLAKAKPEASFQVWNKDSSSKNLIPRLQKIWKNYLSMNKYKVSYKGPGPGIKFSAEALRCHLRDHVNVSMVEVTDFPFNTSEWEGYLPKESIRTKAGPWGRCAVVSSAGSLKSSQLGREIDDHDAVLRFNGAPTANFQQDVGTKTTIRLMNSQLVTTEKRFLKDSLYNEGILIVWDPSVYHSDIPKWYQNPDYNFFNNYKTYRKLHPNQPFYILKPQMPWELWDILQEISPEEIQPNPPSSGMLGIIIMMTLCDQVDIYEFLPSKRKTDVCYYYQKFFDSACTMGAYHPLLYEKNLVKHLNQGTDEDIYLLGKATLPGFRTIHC
# Compound: COc1ccc(Cn2ccc3cc(C)c(C(=O)NO)cc32)cc1
# Experiment: dose-dependent thermal stabilisation call (2D-TPP, DLPTP, 10% FDR) (binary (1 = stabilised)); higher = stabilised by the compound
# Settings: system: HL-60 intact cells; concentration range 0.04-10 µM
# Description: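 2D thermal proteome profiling in intact HL-60 cells treated with BRD-3811 (0, 0.04, 0.29, 2, 10 uM) for 90 min at 37 C, then heated 3 min at one of 12 temperatures (42-63.9 C). Soluble protein was quantified by TMT10 MS. The value is the DLPTP call of the paper: dose-dependent thermal stabilisation over all temperatures at 10% FDR (F-test of a dose-response against a flat model); one experiment, one call per tested protein.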
row,Target,dose-dependent thermal stabilisation call
1,SPTLC2 (UniProt O15270),inactive: 0
2,SPRYD4 (UniProt Q8WW59),inactive: 0
3,SPG21 (UniProt Q9NZD8),inactive: 0
4,STXBP3 (UniProt O00186),inactive: 0
5,SPTY2D1 (UniProt Q68D10),inactive: 0
6,TAF5 (UniProt Q15542),inactive: 0
7,ST3GAL4 (UniProt Q11206),inactive: 0
8,TBC1D25 (UniProt Q3MII6),inactive: 0
9,TCP1 (UniProt P17987),inactive: 0
10,TAF6 (UniProt P49848),inactive: 0
11,STX3 (UniProt Q13277),inactive: 0
12,SRP72 (UniProt O76094),inactive: 0
13,TAF4 (UniProt O00268),inactive: 0
14,SPG7 (UniProt Q9UQ90),inactive: 0
15,SUCLG2 (UniProt Q96I99),inactive: 0
16,TBC1D20 (UniProt Q96BZ9),inactive: 0
17,TBC1D22A (UniProt Q8WUA7),inactive: 0
18,TBC1D1 (UniProt Q86TI0),inactive: 0
19,THEM2 (UniProt Q9NPJ3),inactive: 0
20,TAF8 (UniProt Q7Z7C8),inactive: 0
21,SPTBN2 (UniProt O15020),inactive: 0
22,SSX2IP (UniProt Q9Y2D8),inactive: 0
23,TADA1L (UniProt Q96BN2),inactive: 0
24,STK11IP (UniProt Q8N1F8),inactive: 0
25,SPG11 (UniProt Q96JI7),inactive: 0
26,TBXAS1 (UniProt P24557),inactive: 0
27,ST6GAL1 (UniProt P15907),inactive: 0

# 2 records drawn at random from those above, as already listed:
row,Target,dose-dependent thermal stabilisation call
26,TBXAS1 (UniProt P24557),inactive: 0
20,TAF8 (UniProt Q7Z7C8),inactive: 0

# Source: the supplement of paper PMC7666118
